Laboratory results: article PMC10778711
These are yes or no findings as the source states them, for the method shown. Binding seen in cells or lysates may run through a third protein. Some entries that bind do so weakly or less than the wild type.

Amino acid sequences for entries named in this document (tags omitted).
UniProt P23458: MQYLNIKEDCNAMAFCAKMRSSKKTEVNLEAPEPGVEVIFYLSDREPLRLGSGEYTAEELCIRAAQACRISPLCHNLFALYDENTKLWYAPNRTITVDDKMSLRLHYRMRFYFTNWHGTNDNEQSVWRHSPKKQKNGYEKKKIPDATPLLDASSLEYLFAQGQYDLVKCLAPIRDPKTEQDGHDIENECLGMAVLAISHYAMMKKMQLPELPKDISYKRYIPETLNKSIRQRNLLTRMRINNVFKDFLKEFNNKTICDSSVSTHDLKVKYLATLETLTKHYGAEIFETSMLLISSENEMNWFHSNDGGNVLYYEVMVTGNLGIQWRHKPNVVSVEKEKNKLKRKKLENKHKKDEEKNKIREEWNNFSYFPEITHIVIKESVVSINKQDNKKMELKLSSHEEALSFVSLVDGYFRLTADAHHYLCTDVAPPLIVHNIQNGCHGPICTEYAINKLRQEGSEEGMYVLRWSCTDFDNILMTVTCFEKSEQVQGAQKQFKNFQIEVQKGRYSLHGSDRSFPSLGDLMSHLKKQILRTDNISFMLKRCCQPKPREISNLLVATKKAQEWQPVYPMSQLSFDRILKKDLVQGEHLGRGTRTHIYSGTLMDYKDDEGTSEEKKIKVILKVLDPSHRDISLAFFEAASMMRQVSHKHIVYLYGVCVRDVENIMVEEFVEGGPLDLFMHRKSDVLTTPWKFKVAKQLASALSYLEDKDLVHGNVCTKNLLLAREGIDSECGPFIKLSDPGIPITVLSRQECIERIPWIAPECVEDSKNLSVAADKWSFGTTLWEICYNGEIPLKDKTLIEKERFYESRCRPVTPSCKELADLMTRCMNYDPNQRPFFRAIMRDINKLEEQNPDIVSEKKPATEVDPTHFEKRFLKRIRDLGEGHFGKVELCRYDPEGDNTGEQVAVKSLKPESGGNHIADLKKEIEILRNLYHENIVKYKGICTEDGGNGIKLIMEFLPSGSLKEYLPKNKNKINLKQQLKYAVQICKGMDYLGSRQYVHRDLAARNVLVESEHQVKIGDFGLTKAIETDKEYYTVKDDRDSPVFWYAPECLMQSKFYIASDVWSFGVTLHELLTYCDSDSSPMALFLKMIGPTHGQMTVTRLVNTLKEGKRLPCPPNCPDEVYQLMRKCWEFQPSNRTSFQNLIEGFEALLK
UniProt P42224: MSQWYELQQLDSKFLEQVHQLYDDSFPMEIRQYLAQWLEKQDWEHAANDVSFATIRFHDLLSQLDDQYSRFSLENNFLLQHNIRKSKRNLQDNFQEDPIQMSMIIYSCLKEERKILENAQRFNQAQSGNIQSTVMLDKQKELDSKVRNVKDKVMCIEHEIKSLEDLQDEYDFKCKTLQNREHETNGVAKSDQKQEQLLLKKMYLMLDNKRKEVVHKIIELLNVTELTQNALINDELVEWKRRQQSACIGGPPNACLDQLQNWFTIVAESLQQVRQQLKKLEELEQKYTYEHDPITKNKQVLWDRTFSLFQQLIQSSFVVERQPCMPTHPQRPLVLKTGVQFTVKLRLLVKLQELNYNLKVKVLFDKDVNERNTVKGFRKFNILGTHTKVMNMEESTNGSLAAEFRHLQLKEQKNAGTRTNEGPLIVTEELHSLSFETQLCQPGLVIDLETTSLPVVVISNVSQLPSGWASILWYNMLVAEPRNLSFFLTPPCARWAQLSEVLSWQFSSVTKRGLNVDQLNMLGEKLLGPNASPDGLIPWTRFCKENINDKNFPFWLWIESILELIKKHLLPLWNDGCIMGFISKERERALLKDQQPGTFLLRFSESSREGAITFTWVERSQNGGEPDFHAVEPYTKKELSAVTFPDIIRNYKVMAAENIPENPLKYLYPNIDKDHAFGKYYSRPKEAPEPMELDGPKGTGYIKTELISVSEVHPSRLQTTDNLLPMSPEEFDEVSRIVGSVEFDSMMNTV
UniProt P49792: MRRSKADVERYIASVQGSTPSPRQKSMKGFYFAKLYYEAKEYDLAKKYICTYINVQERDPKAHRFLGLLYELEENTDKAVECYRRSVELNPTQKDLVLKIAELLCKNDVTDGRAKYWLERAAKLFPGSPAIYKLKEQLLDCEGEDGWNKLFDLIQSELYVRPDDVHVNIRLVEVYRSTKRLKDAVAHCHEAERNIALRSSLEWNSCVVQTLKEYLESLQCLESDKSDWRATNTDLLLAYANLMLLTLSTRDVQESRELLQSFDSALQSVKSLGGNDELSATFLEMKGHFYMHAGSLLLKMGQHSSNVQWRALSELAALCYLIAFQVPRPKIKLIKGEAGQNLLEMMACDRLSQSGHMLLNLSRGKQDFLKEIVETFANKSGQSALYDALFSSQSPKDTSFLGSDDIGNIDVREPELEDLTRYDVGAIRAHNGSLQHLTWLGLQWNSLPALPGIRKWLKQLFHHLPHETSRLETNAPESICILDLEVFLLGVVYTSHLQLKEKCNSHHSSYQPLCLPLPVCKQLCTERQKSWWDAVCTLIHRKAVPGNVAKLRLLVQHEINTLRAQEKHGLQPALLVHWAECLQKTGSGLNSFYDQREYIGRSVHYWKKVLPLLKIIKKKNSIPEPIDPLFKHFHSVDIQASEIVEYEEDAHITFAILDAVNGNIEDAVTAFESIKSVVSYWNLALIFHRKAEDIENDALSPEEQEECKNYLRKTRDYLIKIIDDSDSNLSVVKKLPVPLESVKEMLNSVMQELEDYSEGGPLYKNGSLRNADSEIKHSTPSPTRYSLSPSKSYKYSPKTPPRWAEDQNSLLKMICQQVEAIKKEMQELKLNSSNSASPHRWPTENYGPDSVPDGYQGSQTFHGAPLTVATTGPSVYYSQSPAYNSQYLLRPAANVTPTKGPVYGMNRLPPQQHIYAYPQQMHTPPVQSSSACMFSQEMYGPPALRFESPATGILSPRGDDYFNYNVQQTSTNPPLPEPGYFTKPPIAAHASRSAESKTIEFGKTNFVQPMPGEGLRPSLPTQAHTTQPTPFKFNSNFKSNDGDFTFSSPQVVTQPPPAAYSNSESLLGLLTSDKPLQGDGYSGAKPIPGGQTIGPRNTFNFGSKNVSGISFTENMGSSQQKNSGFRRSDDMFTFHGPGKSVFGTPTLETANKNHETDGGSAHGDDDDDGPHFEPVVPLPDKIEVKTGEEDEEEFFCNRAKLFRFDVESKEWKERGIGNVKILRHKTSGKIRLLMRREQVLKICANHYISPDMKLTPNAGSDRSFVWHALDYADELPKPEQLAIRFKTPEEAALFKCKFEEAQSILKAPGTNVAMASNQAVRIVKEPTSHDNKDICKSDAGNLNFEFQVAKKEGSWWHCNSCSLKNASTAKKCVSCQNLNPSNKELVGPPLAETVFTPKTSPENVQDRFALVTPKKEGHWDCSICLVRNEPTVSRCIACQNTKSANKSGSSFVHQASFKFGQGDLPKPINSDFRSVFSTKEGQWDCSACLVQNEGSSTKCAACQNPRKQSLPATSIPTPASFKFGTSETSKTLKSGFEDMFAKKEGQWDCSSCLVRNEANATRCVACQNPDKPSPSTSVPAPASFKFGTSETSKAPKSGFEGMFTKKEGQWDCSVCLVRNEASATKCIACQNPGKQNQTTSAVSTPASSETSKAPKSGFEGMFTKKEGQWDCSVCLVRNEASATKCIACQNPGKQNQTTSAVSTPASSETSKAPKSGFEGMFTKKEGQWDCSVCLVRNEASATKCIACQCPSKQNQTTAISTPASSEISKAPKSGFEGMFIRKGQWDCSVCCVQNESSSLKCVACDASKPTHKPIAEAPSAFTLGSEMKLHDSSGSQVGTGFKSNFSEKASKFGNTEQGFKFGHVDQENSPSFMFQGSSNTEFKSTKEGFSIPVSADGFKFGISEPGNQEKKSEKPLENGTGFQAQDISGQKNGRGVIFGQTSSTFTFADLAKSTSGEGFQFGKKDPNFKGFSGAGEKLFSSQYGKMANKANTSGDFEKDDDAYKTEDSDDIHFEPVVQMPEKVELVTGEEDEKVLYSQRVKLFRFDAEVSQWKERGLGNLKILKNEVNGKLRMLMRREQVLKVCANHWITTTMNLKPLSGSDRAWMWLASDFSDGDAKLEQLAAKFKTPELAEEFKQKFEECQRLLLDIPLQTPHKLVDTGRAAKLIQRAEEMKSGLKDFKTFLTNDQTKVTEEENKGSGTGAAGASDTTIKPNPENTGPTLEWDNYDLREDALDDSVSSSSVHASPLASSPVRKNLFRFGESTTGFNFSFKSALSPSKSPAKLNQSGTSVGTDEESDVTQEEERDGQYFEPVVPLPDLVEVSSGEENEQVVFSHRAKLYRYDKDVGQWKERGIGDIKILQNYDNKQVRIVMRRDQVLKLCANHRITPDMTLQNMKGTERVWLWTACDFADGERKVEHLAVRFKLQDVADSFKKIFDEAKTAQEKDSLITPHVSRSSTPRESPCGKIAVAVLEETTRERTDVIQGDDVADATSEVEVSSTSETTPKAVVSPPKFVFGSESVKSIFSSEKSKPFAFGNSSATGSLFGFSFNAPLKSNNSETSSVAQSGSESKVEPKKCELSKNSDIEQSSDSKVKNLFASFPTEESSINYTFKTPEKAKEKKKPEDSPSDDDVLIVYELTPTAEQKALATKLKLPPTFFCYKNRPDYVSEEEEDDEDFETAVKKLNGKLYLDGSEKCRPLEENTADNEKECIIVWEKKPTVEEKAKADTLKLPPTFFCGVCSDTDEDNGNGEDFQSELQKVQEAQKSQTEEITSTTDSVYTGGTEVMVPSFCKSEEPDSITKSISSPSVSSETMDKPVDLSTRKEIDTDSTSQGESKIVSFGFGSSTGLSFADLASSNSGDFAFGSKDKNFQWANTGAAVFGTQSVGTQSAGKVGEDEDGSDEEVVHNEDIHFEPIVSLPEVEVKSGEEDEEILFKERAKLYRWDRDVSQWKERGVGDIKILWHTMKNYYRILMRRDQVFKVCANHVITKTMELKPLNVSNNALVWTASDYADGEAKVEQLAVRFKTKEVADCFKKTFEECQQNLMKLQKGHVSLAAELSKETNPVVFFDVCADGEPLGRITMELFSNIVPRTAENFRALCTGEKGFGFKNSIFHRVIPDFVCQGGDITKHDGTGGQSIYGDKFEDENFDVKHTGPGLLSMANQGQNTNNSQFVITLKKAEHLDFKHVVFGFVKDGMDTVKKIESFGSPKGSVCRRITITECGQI

Columns and labels:
[1] = biological target: Janus kinase 1 (JAK1), endogenous in HEK293 cells (human (endogenous in HEK293)) (UniProt P23458); experiment: co-IP; mouse anti-JAK1 immunoprecipitation (mouse IgG as negative control) from lysates of unmodified and RanBP2-dE3-1 HEK293 cells, mock treated or 1000 U/mL IFN-α for 30 min, blot for endogenous STAT1
[2] = biological target: Flag tagged STAT1 (STAT1-Flag) (UniProt P42224); experiment: co-IP; anti-Flag immunoprecipitation of STAT1-Flag from lysates of transfected HEK293 cells (unmodified or RanBP2-dE3-1), blot for endogenous RanBP2; with or without co-expressed His6-SUMO2; with or without 1000 U/mL IFN-α for 30 min
[3] = biological target: Ran Binding Protein 2 (RanBP2), endogenous in unmodified HEK293 cells (human (endogenous in HEK293)) (UniProt P49792); experiment: co-IP; anti-RanBP2 immunoprecipitation (rabbit IgG as negative control) from lysates of HEK293 cells transfected with STAT1-Flag, blot for Flag

In the case of “STAT1, endogenous in HEK293 cells (from UniProt P42224 1-750)”, the binding [1] is reported as “binds”.

For “Ran Binding Protein 2 (RanBP2), endogenous in unmodified HEK293 cells (from UniProt P49792 1-3224)”, the binding [2] was “binds”.

With “Flag tagged STAT1 (STAT1-Flag) (from UniProt P42224 1-750)” the binding [3] was “binds”.
